PubChem BioAssay AID1259425 | University of Nebraska Medical Center – 2018
Aim: 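Seek colon cancer weak points whose silencing resembles KSR1 loss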 (primary screen). Cell system: HCT116 human colon cancer cells. Reagents: siRNA pool against human genes, 50 nM siRNA. Measurement: 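mRNA of six signature genes measured together by branched-DNA assay after 50 nM siRNA pool, blank removed, divided by geometric mean of two housekeeping genes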. Direction: BNIP3L mRNA: higher = more BNIP3L transcript after knockdown; NDRG1 mRNA: higher = more NDRG1 transcript after knockdown; BNIP3 mRNA: higher = more BNIP3 transcript after knockdown; ALDOC mRNA: higher = more ALDOC transcript after knockdown; ACSL5 mRNA: higher = more ACSL5 transcript after knockdown.
Shown is an unselected part of about 14,000 reagents tested. No sequences are given here. The record does not give: the time to read-out.

target gene | BNIP3L mRNA, set 1 | NDRG1 mRNA, set 1 | BNIP3 mRNA, set 1 | ALDOC mRNA, set 1 | ACSL5 mRNA, set 1
ADPRHL1 | 0.131 | 0.259 | 0.35 | 0.00395 | 0.164
PPP2R3B | 0.099 | 0.336 | 0.205 | 0.0224 | 0.216
MBNL3 | 0.0991 | 0.0844 | 0.225 | 0.0123 | 0.046
TFEC | 0.0666 | 0.0864 | 0.22 | 0.014 | 0.186
CDA | 0.0916 | 0.187 | 0.344 | 0.0511 | 0.0998
PPP1R14D | 0.14 | 0.0882 | 0.29 | 0.0213 | 0.147
UCHL3 | 0.0793 | 0.111 | 0.216 | 0.0161 | 0.14

Looked up above:
Under “NDRG1 mRNA, set 1”, MBNL3 shows 0.0844
Value of TFEC in “NDRG1 mRNA, set 1”: 0.0864
ADPRHL1, BNIP3L mRNA, set 1 → 0.131

Continued.
target gene | BNIP3L mRNA, set 1 | NDRG1 mRNA, set 1 | BNIP3 mRNA, set 1 | ALDOC mRNA, set 1 | ACSL5 mRNA, set 1
ABCA10 | 0.126 | 0.107 | 0.307 | 0.0306 | 0.103
MAP9 | 0.0991 | 0.317 | 0.401 | 0.0811 | 0.422
CDK18 | 0.207 | 0.336 | 0.386 | 0.012 | 0.197
INPP4B | 0.152 | 0.118 | 0.276 | 0.0194 | 0.131
AGO1 | 0.21 | 0.399 | 0.45 | 0.0393 | 0.343
PARL | 0.0709 | 0.0776 | 0.315 | 0.021 | 0.248
SIPA1L1 | 0.0949 | 0.134 | 0.348 | 0.0352 | 0.126
PSCA | 0.207 | 0.316 | 0.4 | 0.021 | 0.401
WDR59 | 0.0912 | 0.149 | 0.266 | 0.0185 | 0.16
TMCC2 | 0.109 | 0.25 | 0.349 | 0.0213 | 0.102
ANGPTL4 | 0.0559 | 0.0925 | 0.2 | 0.0114 | 0.0686
ATP5MC1 | 0.12 | 0.398 | 0.314 | 0.0181 | 0.235
ATP6V1G1 | 0.347 | 1.17 | 0.751 | 0.341 | 0.189
